Experimental findings from the supplement of paper PMC12889115 are described below.

Some of the results follow. Values are raw readings; no control value is given beside them.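 Primary screen: polymyxin B was added at a level permeabilizing Salmonella outer membranes while sparing inner membranes. DMSO wells, both with and without polymyxin B, established maximum growth. Plate-to-plate variation meant each plate was ranked on its own, and the lowest-OD600 compounds were selected as hits.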

This assay relates to Salmonella enterica serovar Typhimurium SL1344. In words: bacterial growth OD600 after 18 h with compound and polymyxin B; higher = more bacterial growth (less inhibition). The conditions noted are these: 50 µM, Mueller-Hinton broth.

Regarding `COc1ccccc1OC1CCN([C@H]2CN(S(=O)(=O)c3ccccc3)C[C@@H]2O)CC1`, the “bacterial growth OD600” value (polymyxin B 1 µg/mL) was 0.975.
Consider `CCCN(CC1CC1)C(=O)CC1(c2ccccc2OC)CC(=O)N(CCCOC)C1=O` (stereo unspecified), for which the “bacterial growth OD600” value (polymyxin B 0.75 µg/mL) is 0.509.
On to `COC(c1ccccc1)c1nnc(CCC(=O)NCc2cc(F)ccc2C)o1` (stereo unspecified), for which the “bacterial growth OD600” value (polymyxin B 1 µg/mL) is 0.894.
Turning to `Cc1ccccc1CC(=O)NCc1nc(-c2ccc(NC(=O)Cc3ccccc3)cc2)oc1C`, the “bacterial growth OD600” value (polymyxin B 0.75 µg/mL) amounted to 0.845.
Take `COc1ccc(C(=O)N2CCCC2)c(OC2CCN(C(C)C)CC2)c1`: the “bacterial growth OD600” value (polymyxin B 1 µg/mL) stood at 0.864.
`O=C(NCc1cccnc1Oc1ccc(F)c(F)c1)c1cc[n+]([O-])cc1`: for the setting “polymyxin B 1 µg/mL”, the “bacterial growth OD600” value is 1.29.
Take `CCC1C(=O)N(C)CCN1c1ccc(-c2nc(C(C)C)no2)cn1` (stereo unspecified): for the setting “polymyxin B 0.75 µg/mL”, the “bacterial growth OD600” value was 0.93.
`CCOC(=O)C1CCN(Cc2cn(C)nc2-c2cccc(Cl)c2)CC1`: the “bacterial growth OD600” value (polymyxin B 1 µg/mL) was 0.962.
Regarding `C=C(C)CNC(=O)C1CCCN(C2CCN(c3nc4ccccc4o3)CC2)C1` (stereo unspecified), the “bacterial growth OD600” value (polymyxin B 0.75 µg/mL) was 0.771.
On to `O=C(Nc1ccc2c(c1)CN(C(=O)c1ccc3c(c1)OCO3)CC2)c1ccccc1Cl`, for which the “bacterial growth OD600” value (polymyxin B 1 µg/mL) was determined as 0.768.
Still for that read-out and setting: with `CCN(CC1CCN(CCc2ccccc2C)CC1)C(=O)CCC(=O)OC` the figure was 1.05.
`Cc1ccccc1-c1cnc(-c2ccncc2)nc1C1CCCN(Cc2ccc(F)c(F)c2)C1` (stereo unspecified): where the note is “polymyxin B 0.75 µg/mL”, the “bacterial growth OD600” value is 0.002.
Turning to `CN(C)c1ncc2c(n1)CCCC2NCc1ccccc1-c1ccco1` (stereo unspecified), under “polymyxin B 1 µg/mL”, the “bacterial growth OD600” value was found to be 0.787.
With `Cc1cc(C)n(CC(=O)NC2CC(C)(C)Cc3nc(N4CCOCC4)ncc32)n1` (stereo unspecified), the “bacterial growth OD600” value (polymyxin B 0.75 µg/mL) was found to be 0.92.
The same measure, in the same setting: to `CC(=O)Nc1ccc(CN2CCC(c3cccc(F)c3)Sc3ccccc32)cc1` (stereo unspecified) belongs 0.005.
As to `CN(C(=O)CC(c1ccccc1)c1ccc(Cl)cc1)C1CCOCC1` (stereo unspecified), the “bacterial growth OD600” value (polymyxin B 1 µg/mL) was 0.17.
In the case of `CCOC(=O)CCNC(=O)NC1CCCN(C2CCCCCC2)C1` (stereo unspecified), where the note is “polymyxin B 0.75 µg/mL”, the “bacterial growth OD600” value turned out to be 0.86.
Turning to `COc1ccc(-c2nn(-c3ccccc3C)cc2CN2CCCO2)cc1F`, the “bacterial growth OD600” value (polymyxin B 1 µg/mL) came to 0.005.
Take `C=CCC(=O)N1CCCC(N2CCN(c3cccc(C(F)(F)F)c3)CC2)C1` (stereo unspecified): under “polymyxin B 1 µg/mL”, the “bacterial growth OD600” value was determined as 0.824.
Turning to `CN(C)c1ncc2c(n1)CCCC2NC(=O)C1CC1` (stereo unspecified), the “bacterial growth OD600” value (polymyxin B 0.75 µg/mL) is 0.82.
Take `CC(=O)NCCNC(=O)CC(c1ccccc1)c1ccc2c(c1)OCO2` (stereo unspecified): the “bacterial growth OD600” value (polymyxin B 0.75 µg/mL) worked out at 0.87.
